Measured values reported in US20230183342A1 (YISSUM RESEARCH DEVELOPMENT COMPANY OF THE HEBREW …, published 2023).
These are yes or no findings as the source states them, for the method shown. Some binding calls cover weakened binding; strength is not graded here.

The chains behind the UniProt entries cited, without tags or fusion partners. Where a name states a change or a piece, a line headed by the entry shows the natural chain unless it says otherwise. Residues count along the entry.
UniProt O76036: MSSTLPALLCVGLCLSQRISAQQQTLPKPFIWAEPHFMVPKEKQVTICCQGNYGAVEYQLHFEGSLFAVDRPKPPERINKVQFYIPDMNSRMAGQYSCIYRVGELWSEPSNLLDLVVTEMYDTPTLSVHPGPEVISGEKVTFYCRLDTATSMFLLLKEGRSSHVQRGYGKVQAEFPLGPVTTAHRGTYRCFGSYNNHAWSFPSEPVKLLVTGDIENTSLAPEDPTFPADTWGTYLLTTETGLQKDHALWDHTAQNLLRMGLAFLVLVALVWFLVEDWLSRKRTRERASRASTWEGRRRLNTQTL
human NKp46 on cells (BW NKp46 transfectants; activated primary human NK cells): residues 22-304 of O76036
Acro Biosystems Human NKp46 expressed in HEK293 cells: residues 22-258 of O76036

How the values were obtained:
[1] = biological target: human NKp46 on cells (BW NKp46 transfectants; activated primary human NK cells) (human) (UniProt O76036); test: FACS dose response on primary activated bulk human NK cells of two donors, mAb 0.5 to 0.0001 ug/well, secondary antibody m-647
[2] = biological target: human NKp46 on cells (BW NKp46 transfectants; activated primary human NK cells) (human) (UniProt O76036); test: flow cytometry on IL-2 activated primary human NK cells
[3] = biological target: NKp46-Fc fusion protein (NKp46 ectodomain and human IgG1 Fc fragment) (human) (UniProt O76036); test: ELISA, 46-Ig plated at 0.1 ug/well, mAb added, biotin anti-mouse / streptavidin-POD / TMB, OD 650nm
NKp46 D2 domain-Ig = biological target: T1, NKp46 D2 domain-Ig (human, UniProt O76036 121-254); test: ELISA, Ig-D2 plated at 0.1 ug/well, OD650nm
T1 construct: also called D2-Ig; Ig-D2; not shown: Ig part not described for this construct

[4] = biological target: human NKp46 on cells (BW NKp46 transfectants; activated primary human NK cells) (human) (UniProt O76036); test: flow cytometry on BW transfectant cells expressing NKp46
[5] = biological target: human NKp46 on cells (BW NKp46 transfectants; activated primary human NK cells) (human) (UniProt O76036); test: dose response FACS staining of activated primary NK cells from two donors
[6] = biological target: human NKp46 on cells (BW NKp46 transfectants; activated primary human NK cells) (human) (UniProt O76036); test: FACS of activated bulk NK cells incubated with the mAb for 8 hrs at 4 C or 37 C, secondary antibody anti-m647
[7] = biological target: Acro Biosystems Human NKp46 expressed in HEK293 cells (human) (UniProt O76036); test: ELISA on coated Acro Biosystems human NKp46, detection anti-Hu Kappa HRP / TMB, absorbance 450 nm (% Absorbance Normalized)

Measured: binding

B1: anti-NKp46 monoclonal antibody clone K3 (antibody, V domains shown)
VH: EVQLQQSGPELVKPGTSVKISCKTSGYTFTEYSMHWVKQSHGKSLEWFGGISPNSGGTSYNQKFKGKATLTVDKSSSTAYMELRSLTSEDSAVYYCARRDFHSSFDYWGQGTTLTVSS
VL: DIVLTQSPATLSVTPGNSVSLSCRASQSISDYLHWFQQKSHESPRLLIKYASQSISGIPSRFSGSGSGSDFTLSINSVEPEDVGVYYCQNGHSFPLTFGPGTKLELK
not listed: [7]
binds: all other assays above

B2: humanized K3 antibody having mutated IgG4 (antibody, V domains shown)
VH: EVQLQQSGAEVKKPGSSVKVSCKTSGYTFTEYSMHWVRQAPGKSLEWFGGISPNSGGTSYNQKFKGRATLTVDKSSSTAYMELSSLRSEDTAVYYCARRDFHSSFDYWGQGTTVTVSS
VL: DIVLTQSPATLSLSPGERATLSCRASQSISDYLHWFQQKPHESPRLLIKYASQSISGIPARFSGSGSGSDFTLTISSLEPEDFAVYYCQNGHSFPLTFGPGTKVDIKR
notes: detected with an anti-human kappa secondary antibody
binds: [7]
